From PubChem BioAssay AID2685 (National Center for Advancing Translational Sciences (NCATS), 2010)
The other results are listed elsewhere or left out. These are further read-outs of the screen, such as a control signal, another cell line or another target. No call is given for them. Most of these compounds were active or inconclusive in the main read-out, so they are no random draw. Words in brackets tell the shape of the fitted curve; partial curves, single points and poor fits give uncertain potencies.

Assay: qHTS Assay for Lipid Storage Modulators in Drosophila S3 Cells;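 as to cell number change: cells counted by Cell Tracker Red CMTPX staining in the red channel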
Settings: BODIPY lipid droplet fluorescence, 18-24 h; for cell number change: measured here: cell count max response, cells fed with added oleic acid
Outline: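 Drosophila S3 cells loaded with oleic acid (400 uM, as added) and compounds at several concentrations; lipid droplets imaged by 488-nm laser-scanning cytometry, 500–530 nm intensity and object ratio to cell channel. Percent activity normalized to 20 uM Triacsin C.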

[1] = measured here: lipid fluorescence (Fed channel) AC50, cells fed with added oleic acid
[2] = measured here: cell number channel AC50, cells fed with added oleic acid

Row | SMILES | cell number change | AC50 [1] | AC50 [2]
1 | Cc1ccccc1NS(=O)(=O)c1ccc2c(c1)NC(=O)CO2 | -15.7% | 5.8 µM [falling, partial curve] | –
2 | COC(=O)c1cc(-c2ccc(OC)cc2F)nc2nc(SC)[nH]c(=O)c12 | -8.57% | – | –
3 | O=C(COc1ccc(Cl)cc1)NNC(=O)c1ccncc1 | -2.6% | 29.1 µM [rising, single point] | –
4 | O=c1[nH]c(=O)n(C2CCCCCC2)c(O)c1C=NCc1ccc(F)cc1 | -39.1% | – | 25.9 µM [falling, single point]
5 | O=C(CN1CCCCC1)N=Nc1c(O)[nH]c2ccccc12 | -13% | 0.058 µM [falling, full curve, poor fit] | –
6 | COc1ccc(OC)c(-n2c(-c3cc(-c4ccccc4)n[nH]3)n[nH]c2=S)c1 | -50% | 1.46 µM [rising, full curve] | 0.164 µM [falling, full curve]
7 | c1ccc(Nc2c3c(nc4ncnn24)CCC3)cc1 | 0.646% | 0.731 µM [falling, full curve, poor fit] | –
8 | COc1ccc(CN2C(=O)CSCC2=O)cc1OC | 31.1% | 29.1 µM [rising, partial curve, poor fit] | 32.6 µM [rising, single point]
9 | CS(=O)(=O)N(Cc1ccccc1)c1ccc(C(=O)Nc2ccc(C(N)=O)cc2)cc1 | -34.1% | 0.58 µM [falling, single point] | 1.3 µM [falling, full curve]
10 | Cn1nc(C(F)(F)F)c(-c2ccc(F)cc2)c1NC(=O)Nc1ccc(F)cc1 | -35.2% | 14.6 µM [falling, single point] | 29.1 µM [falling, single point]
11 | Cc1cccc(NC(=O)COC(=O)c2cccs2)c1C | 11.7% | – | –
12 | CNc1cccc2c1C(=O)c1ccccc1C2=O | – | 13 µM [falling, partial curve] | –
13 | CCOC(=O)N1CCC(N2C(=O)c3ccccc3C2Nc2ccc(C)cc2)CC1 (stereo not drawn) | 49.1% | – | 4.61 µM [rising, partial curve, poor fit]
14 | O=S(=O)(c1ccc(-c2nnc(SCc3nnc(-c4ccccc4)o3)o2)cc1)N1CCCC1 | 2.6% | 18.4 µM [falling, single point] | –
15 | CN(Cc1ccccc1)C(=O)Cn1c(=O)oc2cc(S(=O)(=O)N3CCCC3)ccc21 | 44.5% | 2.31 µM [falling, partial curve] | –
16 | Cc1ccc2nc(SCC(=O)OCc3ccccc3)nc(=O)n2c1 | – | 6.51 µM [falling, single point] | –
17 | Cc1cc(C(=O)CN2C(=O)NC3(CCCCC3C)C2=O)c(C)n1Cc1cccs1 (stereo not drawn) | 32.6% | 1.3 µM [rising, full curve, poor fit] | 9.2 µM [rising, partial curve]
18 | CC1CN(c2nnc(NC(=O)c3ccccc3)s2)CC(C)O1 (stereo not drawn) | 33.1% | – | 25.9 µM [rising, single point]
19 | COc1ccc(OC)c(CC(NC(C)=O)C(=O)NC2CCN(c3nc(OC)nc(OC)n3)CC2)c1 (stereo not drawn) | 4.92% | 5.8 µM [falling, single point] | –
20 | O=C(COC(=O)c1ccc[nH]c1=O)NC1CCCC1 | -1.03% | 0.82 µM [falling, full curve] | –

Row | SMILES | cell number change | AC50 [1] | AC50 [2]
21 | O=C(Nc1nnc(CCOCCOCCc2nnc(NC(=O)c3ccco3)s2)s1)c1ccco1 | 53.1% | 0.517 µM [rising, full curve] | 10.3 µM [rising, partial curve, poor fit]
22 | CCCn1c(=O)c2ccccc2n2c(SCC(=O)Nc3cc(C)on3)nnc12 | 16.2% | 0.146 µM [rising, full curve, poor fit] | –
23 | CCN(c1ccccc1)S(=O)(=O)c1cc(CN2C(=O)c3cccnc3C2=O)ccc1OC | 3.82% | – | –
24 | CCOC(=O)COc1cc(-n2c(=S)[nH]c3cc(OC)c(OC)cc3c2=O)c(Cl)cc1Cl | -63.4% | 23.1 µM [falling, single point] | 29.1 µM [falling, single point]
25 | Cc1ccc(N2CC(=O)Nc3c(sc4nc(C)cc(C)c34)C2=O)cc1 | 20.5% | 3.26 µM [rising, partial curve] | –
26 | O=C(NC1CCCC1)C1CCC(CNS(=O)(=O)c2ccccc2)CC1 (stereo not drawn) | 20% | 0.651 µM [rising, single point] | –
27 | O=C(N/N=C/c1ccc(N2CCCCC2)o1)c1ccccc1[N+](=O)[O-] | -51.3% | 32.6 µM [falling, partial curve] | 18.4 µM [falling, single point]
28 | COc1ccc2c(-c3cc4ccc(OCc5ccc(F)cc5)cc4oc3=O)cc(=O)oc2c1 | -66.7% | – | 1.84 µM [falling, partial curve]
29 | CCCCn1c(N)c(N(CCC(C)C)C(=O)COC(=O)c2ccc3ccccc3c2)c(=O)[nH]c1=O | – | – | 4.11 µM [rising, single point]
30 | c1coc(-c2ccnc3ncnn23)c1 | -41.5% | 18.4 µM [falling, single point] | 29.1 µM [falling, single point]
31 | COc1ccc(NC(=O)C2CCCN2C(=O)NC2CCCCC2)cc1 (stereo not drawn) | 9.83% | 29.1 µM [rising, single point] | 0.731 µM [rising, single point]
32 | COc1ccc(OC)c(C(c2nnnn2Cc2ccco2)N2CCN(C)CC2)c1 (stereo not drawn) | 17.2% | 0.0058 µM [rising, full curve, poor fit] | 0.00411 µM [rising, full curve, poor fit]
33 | CCCCn1c(N)c(N(CCOC)C(=O)CCc2ccc(OC)cc2)c(=O)[nH]c1=O | -0.89% | – | 6.51 µM [rising, single point]
34 | CC(=O)OC(C)(C)C1Cc2cc3ccc(=O)oc3cc2O1 (stereo not drawn) | 2.84% | – | 1.64 µM [rising, partial curve]
35 | O=C1Nc2ccccc2/C1=C\c1cccn1-c1ccc(OC(F)(F)F)cc1 | -45.9% | 16.4 µM [falling, partial curve] | 0.0146 µM [falling, full curve, poor fit]
36 | COc1ccc(C(=O)N2CCN(C(C)=O)CC2)cc1S(=O)(=O)N1CCOCC1 | -26.2% | – | 0.517 µM [falling, full curve, poor fit]
37 | COc1ccccc1C(=O)NCC(=O)NC(C)CCc1ccccc1 (stereo not drawn) | 15.7% | – | –
38 | O=S1(=O)CCC(NC(=S)N2CCCCC2)C1 (stereo not drawn) | -6.03% | 32.6 µM [falling, single point] | –
39 | O=C(O)c1cccc(NC(=O)c2ccc3c(c2)C(=O)N(CC2CCCO2)C3=O)c1 (stereo not drawn) | -30.2% | 1.03 µM [falling, full curve, poor fit] | 0.092 µM [falling, full curve]
40 | Cc1ccnc(NC(=O)CCC2CCCCC2)c1 | – | 6.51 µM [falling, single point] | –

Entries of single compounds, quoted from the list:
COc1ccc(NC(=O)C2CCCN2C(=O)NC2CCCCC2)cc1 (stereo not drawn) as listed: cell number change: 9.83%; AC50 [1]: 29.1 µM [rising, single point]; AC50 [2]: 0.731 µM [rising, single point]
O=C(Nc1nnc(CCOCCOCCc2nnc(NC(=O)c3ccco3)s2)s1)c1ccco1 as listed: cell number change: 53.1%; AC50 [1]: 0.517 µM [rising, full curve]; AC50 [2]: 10.3 µM [rising, partial curve, poor fit]
O=C(N/N=C/c1ccc(N2CCCCC2)o1)c1ccccc1[N+](=O)[O-] as listed: cell number change: -51.3%; AC50 [1]: 32.6 µM [falling, partial curve]; AC50 [2]: 18.4 µM [falling, single point]
Cc1ccnc(NC(=O)CCC2CCCCC2)c1 as listed: AC50 [1]: 6.51 µM [falling, single point]

Remaining list, next part

Row | SMILES | cell number change | AC50 [1] | AC50 [2]
41 | O=S(=O)(c1ccccc1)N1CCN(C(=S)Nc2ccc(F)cc2)CC1 | 37.9% | 6.51 µM [falling, partial curve, poor fit] | 16.4 µM [rising, single point]
42 | C=CCNCCOCCOc1ccc(C)cc1[N+](=O)[O-] | 10.9% | – | –
43 | O=C(O)c1nc(NCCc2ccccc2)ncc1Cl | – | 1.03 µM [rising, full curve, poor fit] | 0.103 µM [rising, full curve, poor fit]
44 | COc1ccc(CCNC(=O)c2ccc3c(=O)n4c(nc3c2)CCC4)cc1OC | -17% | 7.31 µM [falling, single point] | –
45 | CC(Oc1ccccc1)C(=O)Nc1nnc(S(=O)(=O)N(C)c2ccccc2)s1 (stereo not drawn) | 4.29% | 32.6 µM [falling, single point] | –
46 | CCOC(=O)NC(NCCc1ccccc1)(C(F)(F)F)C(F)(F)F | -22.7% | – | –
47 | S=C(c1ccc(-c2cccc(Cl)c2)o1)N1CCOCC1 | -8.62% | – | –
48 | CN(C)c1c(-c2ccccc2)cc(-c2ccccc2)[nH]c1=O | 6.21% | 7.31 µM [rising, partial curve] | –
49 | CCC(C)[C@H](NC(=O)NCc1cccs1)C(=O)O (stereo partly drawn) | 6.12% | 0.731 µM [falling, full curve, poor fit] | –
50 | O=C(Nc1nc(-c2ccccn2)cs1)c1cc2ccccc2o1 | 10.1% | – | –
51 | CCCCCC(C)NC(=S)NC(=O)c1cc(S(=O)(=O)N2CCOCC2)ccc1C (stereo not drawn) | -3.13% | 0.82 µM [falling, full curve, poor fit] | –
52 | O=C(O)c1ccccc1C(=O)Nc1ccc(-c2csc(-c3ccccc3)n2)cc1 | – | 2.06 µM [rising, partial curve] | –
53 | Nc1c(N(CCC2=CCCCC2)C(=O)Cc2ccc(F)cc2)c(=O)[nH]c(=O)n1Cc1ccccc1 | 129% | – | 18.4 µM [rising, single point]
54 | COc1ccc(Cl)cc1NC(=O)CSc1nnc(COc2ccccc2)n1N | -42.9% | 2.59 µM [rising, partial curve] | 2.31 µM [rising, partial curve]
55 | Cc1cc(NC(=O)c2cc(-c3cccc(OCC(C)C)c3)nc3ccccc23)no1 | 124% | – | 20.6 µM [rising, partial curve]
56 | Cn1nnnc1NCc1c(F)cccc1Cl | -0.397% | 16.4 µM [falling, single point] | –
57 | CC(=O)c1ccc(Oc2ncnc(N)c2[N+](=O)[O-])cc1 | -19.1% | 3.26 µM [falling, full curve] | –
58 | CCN(CC(=O)NC1CCS(=O)(=O)C1)S(=O)(=O)c1ccc(C)cc1C (stereo not drawn) | -4.91% | 29.1 µM [rising, single point] | –
